# In PubChem BioAssay AID694 (Emory University Molecular Libraries Screening Center, 2007):
# Chains of the proteins cited; added tags and fusions are not shown.
# UniProt P03372, whole entry, looked up: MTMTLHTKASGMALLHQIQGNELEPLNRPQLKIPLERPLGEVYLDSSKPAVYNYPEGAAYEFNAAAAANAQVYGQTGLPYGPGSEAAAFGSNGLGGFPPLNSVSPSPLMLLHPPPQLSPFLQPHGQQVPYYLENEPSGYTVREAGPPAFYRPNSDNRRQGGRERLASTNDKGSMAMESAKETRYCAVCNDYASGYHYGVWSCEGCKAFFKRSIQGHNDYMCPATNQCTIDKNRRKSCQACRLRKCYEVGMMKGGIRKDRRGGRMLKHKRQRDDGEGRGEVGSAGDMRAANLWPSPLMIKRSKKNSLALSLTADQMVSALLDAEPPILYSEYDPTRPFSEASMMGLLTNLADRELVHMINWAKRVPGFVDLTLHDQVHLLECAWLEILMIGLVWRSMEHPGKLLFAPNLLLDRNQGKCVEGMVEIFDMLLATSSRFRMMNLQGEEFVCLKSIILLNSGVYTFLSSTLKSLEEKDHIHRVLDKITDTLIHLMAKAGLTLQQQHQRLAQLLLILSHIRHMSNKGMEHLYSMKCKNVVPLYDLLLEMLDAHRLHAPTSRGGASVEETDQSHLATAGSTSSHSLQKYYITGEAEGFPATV
# Where “and” joins values, the source holds several entries; their conditions need not be identical. Equal values may be shown once. The list shows a part of the results. Further columns of the screen follow, without active or inactive calls.
# Target: Estrogen receptor (Homo sapiens) (UniProt P03372)
# Experiment: ERα coactivator peptide binding inhibitors, primary screen, biochemical, LOPAC library, TR-FRET (AID 694);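 further: receptor was agonist-bound with estradiol present during the assay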
# Details: TR-FRET ERalpha-coactivator peptide binding, at 15 µM, stronger effect = higher value
row,Structure (SMILES),inhibition
1,NNC(=O)c1ccc(O)cc1,-0.27%
2,NCCCP(=O)(O)O,-1.98%
3,CCNC(=O)[C@H]1O[C@@H](n2cnc3c(N)ncnc32)C(O)[C@H]1O (some centres not stated),11.7%
4,CNCCc1c[nH]c2ccc(O)cc12,0.81%
5,NNC(N)=O,0.51%
6,COC(=O)C1=CCCN(C)C1,-0.07%
7,N[C@H](CCCCCP(=O)(O)O)C(=O)O,-3.22%
8,CCn1cc(C(=O)O)c(=O)c2ccc(C)nc21,0.37%
9,CC(C)(C)c1o[nH]c(=O)c1CC(N)C(=O)O (configuration not stated),-9.31%
10,O=C1CCCN1CC#CCN1CCCC1,1.79%
11,C[C@]12N[C@H](Cc3ccccc31)c1ccccc12,-1.03%
12,CCCN(CCC)C1CCc2cccc(O)c2C1 (configuration not stated),3.38%
13,Cc1nccc2c1[nH]c1ccccc12,5.26%
14,CCCN1CCc2cccc3c2[C@H]1Cc1ccc(O)c(O)c1-3,6.96%
15,CN1CC[C@@]2(C)c3cc(O)ccc3N(C)C12 (some centres not stated),7.88%
16,CCN(CC)c1ncnc2c1ncn2[C@@H]1O[C@H](COP(=O)(O)OP(=O)(O)C(Br)(Br)P(=O)(O)O)[C@@H](O)[C@H]1O,-1.75%
17,COc1ccc2c(c[n+](C)c3c4cc5c(cc4ccc23)OCO5)c1OC,-1.14%
18,CNc1ccc2oc(C[C@H]3O[C@@]4(CC[C@H]3C)O[C@H]([C@H](C)C(=O)c3ccc[nH]3)[C@H](C)C[C@H]4C)nc2c1C(=O)O,-1.36%
19,c1ccc2c(c1)[I+]c1ccccc1-2,-0.06%
20,CCCN1CCC[C@H](c2cccc(O)c2)C1,-1.27%
21,NC(=O)COc1c(F)cc(SCCNS(=O)(=O)c2ccccc2)cc1F,-2.18%
22,C[N+]1(C)CCN(c2ccccc2)CC1,-0.43%
23,C[C@H](Cc1ccc2c(c1)OC(C(=O)O)(C(=O)O)O2)NC[C@H](O)c1cccc(Cl)c1,1.61%
24,CCC1(c2ccc(N)cc2)CCC(=O)NC1=O (configuration not stated),1.33%
25,N[C@@]1(C(=O)O)CC[C@@H](C(=O)O)C1,-7.67%

row,Structure (SMILES),inhibition
1,CN(C(=O)Cc1ccc(Cl)c(Cl)c1)C(CN1CCCC1)c1cccc(OCC(=O)O)c1 (configuration not stated),-1.36%
2,NCCc1ccc(O)cc1,-0.14%
3,C[C@@H](N)Cc1cnc[nH]1,-0.55%
4,Clc1cc(I)cc(Cl)c1NC1=NCCN1,2.41%
5,CCCN1CCC[C@@H]2Cc3[nH]ncc3C[C@H]21,3.3% and 4.2%
6,NCCc1c[nH]c2ccccc12,-0.2%
7,CN1C2CCC1CC(OC(c1ccccc1)c1ccccc1N)C2 (configuration not stated),-3.14%
8,Cc1ccc(S(=O)(=O)N[C@@H](CCCCN)C(=O)CCl)cc1,5.6%
9,CCCN1CCC[C@@H](c2cccc(O)c2)C1,4.87%
10,Cc1cccc(C)c1NC1=NCCCS1,22.1%
11,Clc1ccc(N2CC3CCC(C2)N3)nn1,2.32%
12,CCCCCCCCCCCCCC(=O)O[C@@H]1[C@@H](C)[C@@]2(O)[C@@H](C=C(CO)C[C@@]3(O)C(=O)C(C)=C[C@@H]23)C2C(C)(C)[C@@]21OC(C)=O (some centres not stated),2.86%
13,C[N+]1(C)CCC(OC(=O)C(c2ccccc2)c2ccccc2)CC1,1.05%
14,CC(=O)NBr,-0.97%
15,Cc1c2ccncc2c(C)c2c1[nH]c1ccccc12,5.53%
16,CC(C)NP(=O)(NC(C)C)OP(=O)(NC(C)C)NC(C)C,2.04%
17,C#CCN[C@H](C)Cc1ccccc1,-1.83%
18,CCCN(CCC)[C@@H]1CCc2cccc(O)c2C1,2.93%
19,COc1cc(CCN)ccc1O,-3.7%
20,NCc1cc(=O)[nH]o1,-0.13%
21,CCCN1CCc2cc(O)cc3c2[C@H]1Cc1ccc(O)c(O)c1-3,50%
22,CC1(C(=O)O)C2CCC(O2)C1(C)C(=O)O (configuration not stated),-0.95%
23,CC(C)(C)NCC(O)c1ccccc1Cl (configuration not stated),-0.23%
24,Nc1ncnc2c1ncn2[C@@H]1O[C@H](COP(=O)(O)CP(=O)(O)OP(=O)(O)O)[C@H](O)C1O (some centres not stated),-2.94%
25,CS(=N)(=O)CC[C@H](N)C(=O)O (some centres not stated),2.39%

row,Structure (SMILES),inhibition
1,Ic1ccccc1CNC1C2CCN(CC2)C1C(c1ccccc1)c1ccccc1 (configuration not stated),-4.88%
2,COc1ccc2c(c1)/C(=C/c1cnc[nH]1)C(=O)N2,-5.07%
3,NCCc1c[nH]c2ccc(O)cc12,-1.65%
4,CC(Cc1ccc(OCC(=O)O)cc1)NCC(O)c1cccc(Cl)c1 (configuration not stated),0.47%
5,OC1CCCCC1N1CCC(c2ccccc2)CC1 (configuration not stated),-1.91%
6,O=[N+]([O-])c1cc(O)c(O)c([N+](=O)[O-])c1,5%
7,NCCc1ccc(S(=O)(=O)F)cc1,-0.59%
8,C[C@H](N)CN1CCc2ccc(Br)cc21,-1.78%
9,N[C@@H](Cn1ccc(=O)[nH]c1=O)C(=O)O,2.46%
10,C=C(C)[C@H]1CN[C@H](C(=O)O)[C@H]1CC(=O)O,2.9%
11,NC1CC1c1ccccc1 (configuration not stated),0.05%
12,CC12CCC3C(CCC4=C(O)C(=O)CCC43C)C1CCC2=O (configuration not stated),-4.7%
13,O=[N+]([O-])c1ccc2nc(N3CCNCC3)ccc2c1,2.21%
14,CCCN(CCC)CCc1c[nH]c2ccc(C(N)=O)cc12,3.38%
15,C=CCN1C[C@@H](C)N([C@H](c2ccc(C(=O)N(CC)CC)cc2)c2cccc(OC)c2)C[C@@H]1C,-1.11%
16,COc1cc(C[C@@H](C)N)c(OC)cc1I,2.84%
17,C=CCN1CC[C@]23c4c5ccc(O)c4O[C@H]2/C(=N/NC(=O)c2ccccc2)CC[C@@]3(O)[C@H]1C5,31.7%
18,CC1=C[C@@H]2c3cccc4[nH]cc(c34)C[C@H]2N(C)C1,-1.61%
19,COc1ccc2c(c1)C13CCCCC1C(C2)N(C)CC3 (configuration not stated),1.39%
20,C[N+](C)(C)CC(=O)O,12.1%
21,S=C(NC1CCCCC1)N1CCC(c2cnc[nH]2)CC1,0.57%
22,NC(N)=NOCC[C@H](N)C(=O)O,-2.47%
23,CNCCc1ccc(O)c(O)c1,-1.81%
24,Oc1cc2c(cc1O)[C@H]1c3ccccc3CN[C@@H]1CC2,5.65%
25,CN1CCC23CCCC[C@H]2C1Cc1ccc(O)cc13 (some centres not stated),-3.9%

row,Structure (SMILES),inhibition
1,CCCN1CCC[C@@H]2Cc3nc(N)ncc3C[C@H]21,3.48%
2,N#CC(=Cc1ccc(O)c(O)c1)C(N)=S,12.6%
3,Cn1cnc(CCN)c1,-0.47%
4,NC(Cn1oc(=O)[nH]c1=O)C(=O)O (configuration not stated),2.99%
5,CC1Cc2cc3c(cc2C(c2ccc(N)cc2)=NN1)OCO3 (configuration not stated),1.51%
6,CN1CCC(c2c[nH]c3ccc(O)cc23)CC1,-1.65%
7,CC(C)[C@@]1(NC(=O)[C@@H]2C[C@@H]3c4cccc5[nH]cc(c45)C[C@H]3N(C)C2)O[C@@]2(O)[C@@H]3CCCN3C(=O)[C@H](Cc3ccccc3)N2C1=O,0.11%
8,Oc1ccc2c3c1O[C@H]1c4[nH]c5ccccc5c4C[C@@]4(O)C(C2)N(CC2CC2)CCC314 (some centres not stated),1.45%
9,CC(N)Cc1c[nH]c2ccc(OCc3cccs3)cc12 (configuration not stated),-1.78%
10,COc1ccc(CNC(=O)/C=C/c2ccc3[nH]cc(CCN(C)C)c3c2)cc1,1.81%
11,NC(=O)c1ccc(OCC(O)CN2CC=C(c3ccc(F)cc3)CC2)cc1 (configuration not stated),2.41%
12,C[N+](C)(C)CC#CCN1CCCC1=O,-6.75%
13,NC(=O)CN1CC(O)CC1=O (configuration not stated),-4.04%
14,COc1cc(C=C(C#N)C#N)cc(O)c1O,0.97%
15,Nc1ccncc1,-3.1%
16,COc1ccc(-n2nc(C(F)(F)F)cc2-c2ccc(Cl)cc2)cc1,6.58%
17,C[N+]1(C)CCOC(O)(c2ccc(-c3ccc(C4(O)C[N+](C)(C)CCO4)cc3)cc2)C1 (configuration not stated),4.41%
18,NCC(O)c1cc(O)c(O)cc1F (configuration not stated),27.1%
19,O=C(O)CCCc1ccc(N(CCCl)CCCl)cc1,6.41%
20,CCS(=O)(=O)Nc1cccc(C(=C2CCCCC2)c2cnc[nH]2)c1,-2.88%
21,Cc1[nH]c2ccc(O)cc2c1CCN,-1.03%
22,C=CCN1CCc2cccc3c2[C@H]1Cc1ccc(O)c(O)c1-3,10.1%
23,Oc1ccc2c3c1O[C@H]1c4[nH]c5c(c4C[C@@]4(O)[C@@H](C2)N(CC2CC2)CC[C@]314)C[C@@]1(O)[C@H]2Cc3ccc(O)c4c3[C@@]1(CCN2CC1CC1)[C@H]5O4,4.31%
24,CCCCc1ccc(C(=O)O)nc1,-1.68%
25,C[N+](C)(C)CC#CCOC(=O)Nc1cccc(Cl)c1,-1.75%

row,Structure (SMILES),inhibition
1,CC(N)[C@H](O)c1ccc(O)c(O)c1 (some centres not stated),-1.34%
2,Cc1ncc(CNC(=O)N(CCCl)N=O)c(N)n1,1.87%
3,COc1ccc2[nH]cc(CCN)c2c1,2.32%
4,CC[C@@]1(O)C(=O)OCc2c1cc1n(c2=O)Cc2cc3ccccc3nc2-1,7.41%
5,C[C@]12Cc3cn4c(nc3C=C1CCC1C2CC[C@@]2(C)[C@H]1CC[C@@]2(O)C#N)nc1ccccc14 (some centres not stated),-5.08%
6,Clc1cccc(N2CCNCC2)c1,-6.81%
7,O=C1NCN(c2ccccc2)C12CCN(CC1COc3ccccc3O1)CC2 (configuration not stated),0.38%
8,c1ccc2nc(N3CCNCC3)ccc2c1,-0.06%
9,NC(=NCCC[C@H](N)C(=O)O)N[N+](=O)[O-],1.03%
10,C[C@]12CC[C@H](OS(=O)(=O)O)CC1=CC[C@@H]1[C@@H]2CC[C@]2(C)C(=O)CC[C@@H]12,0.46%
11,Cc1c(C(=O)c2cccc3ccccc23)c2cccc3c2n1[C@H](CN1CCOCC1)CO3,2.28%
12,CC(CCc1ccccc1)NC(C)C(O)c1ccc(O)cc1 (configuration not stated),-0.12%
13,C#CCN(C)[C@@H](C)Cc1ccccc1,-2.35%
14,CC(=O)[C@H]1CCC2C3CC[C@H]4C[C@H](O)CC[C@]4(C)C3CC[C@@]21C (some centres not stated),2.7%
15,CC(C)c1cccc(C(C)C)c1O,-0.56%
16,Cc1nc(-c2ccc(-c3ccc(C(=O)N4CCc5cc6c(cc54)C4(CCN(C)CC4)CO6)cc3)c(C)c2)no1,6.5%
17,OCc1cnc[nH]1,-3.48%
18,N#CC(C#N)=Cc1cc(O)c(O)c(O)c1,10.5%
19,CN1C[C@H](CNC(=O)OCc2ccccc2)C[C@@H]2c3cccc4c3c(cn4C)C[C@H]21,-0.71%
20,CCN1C[C@]2(C)CC[C@H](O)[C@@]34C5C[C@@H]6[C@@H](OC)C[C@@](O)(C5[C@H]6O)[C@@H](CC23)C14 (some centres not stated),-3.6%
21,C[C@]12CC[C@H](O)CC1=CC[C@@H]1[C@@H]2CC[C@]2(C)C(=O)CC[C@@H]12,0.16%
22,CC[C@@H](CO)NC(=O)[C@@H]1C=C2c3cccc4c3c(cn4C)C[C@H]2N(C)C1,1.21%

# Gathered by group, the compounds so far with fluorine (five)
row,Structure (SMILES),inhibition
21,NC(=O)COc1c(F)cc(SCCNS(=O)(=O)c2ccccc2)cc1F,-2.18%
7,NCCc1ccc(S(=O)(=O)F)cc1,-0.59%
11,NC(=O)c1ccc(OCC(O)CN2CC=C(c3ccc(F)cc3)CC2)cc1 (configuration not stated),2.41%
16,COc1ccc(-n2nc(C(F)(F)F)cc2-c2ccc(Cl)cc2)cc1,6.58%
18,NCC(O)c1cc(O)c(O)cc1F (configuration not stated),27.1%
